Assay: Membrane separation unit experiments (transfer from air to octanol in LIQUI-CEL hollow fiber module)
Details: for Ko: air flow 20 L/min

Q: For `Cc1cccc(C)c1` [m-xylene], which “transfer from air to octanol inside the membrane unit” value (LIQUI-CEL module, octanol) is on record?
A: The value was “successfully transferred from air to octanol”.

Q: And the Ko (octanol flow 0.12 L/min)?
A: The Ko was 3.1e-06 cm/s.

Q: And the Ko (octanol flow 0.56 L/min)?
A: The Ko was 1.03e-05 cm/s.

Source: patent publication US5954858A, “Bioreactor process for the continuous removal of organic compounds from a vapor phase process stream” (North Carolina State University, priority 1996, dated 1999)
